According to PubChem BioAssay AID540256 (National Center for Advancing Translational Sciences (NCATS), 2011):
In all, about 300,000 compounds went through this assay and about 3,700 (1.2%) were called active. The shares of active, inactive and inconclusive entries below differ from those in the screen. The call rests on the fitted dose curve; tested in HEK293 cells. Where the call is inconclusive, the potency comes from a doubtful curve fit.

Experiment: qHTS for Inhibitors of binding or entry into cells for Lassa Virus; further: nearly all actives have a fitted effect of over 50% in size
Details: Lassa virus pseudotype entry inhibition, cell reporter; series mostly up to 37.9 µM
Potency means the concentration at half of the fitted maximal effect.

SMILES	Potency
Cc1ccc(NC(=O)CSc2nnc(CNC(=O)c3ccco3)n2C)cc1	inconclusive: 14.1 µM [inhibitor, single point]
O=C(CCC(=O)Nc1ccc(Cl)cc1)N/N=C/c1ccc2c(c1)OCO2	inconclusive: 35.5 µM [inhibitor, single point]
COc1ccc(S(=O)(=O)N2CCCCCC2)cc1C(=O)N(C)Cc1cccc(OC)c1OC	inconclusive: 35.5 µM [inhibitor, single point]
O=C1Nc2cc(Cl)ccc2Oc2cc(Oc3ccccc3)ccc21	inconclusive: 2 µM [inhibitor, partial curve, poor fit]
Cc1ccc([N+](=O)[O-])cc1NC(=O)CN(C(=O)c1ccc(Cl)cc1)C1CCCCC1	inconclusive: 18.3 µM [inhibitor, single point]
COc1ccc(NC(=O)/C(Cl)=C(/Cl)S(=O)Cc2ccc(Cl)cc2)cn1 (centres undefined)	active: 3.16 µM
COc1cccc(C=NNC(=O)CCCC(=O)NN=Cc2cccc(OC)c2)c1	inactive
Cc1ccc(C(=O)Nc2ccccc2C(=O)N2CC3(C)CC2CC(C)(C)C3)cc1 (centres undefined)	inconclusive: 32.6 µM [inhibitor, partial curve, poor fit]
CC(C)n1c(SCC(=O)N2c3ccccc3Sc3ccccc32)nc2c1c(=O)n(C)c(=O)n2C	inconclusive: 4.61 µM [inhibitor, partial curve]
C/C(=N\NC(=O)C1CCCC1)c1ccc(C(C)C)cc1	inactive
O=C(CCc1ccc(Oc2cc([N+](=O)[O-])cc([N+](=O)[O-])c2)cc1)N1CCCCCC1	inactive
Cc1ccc(C(=O)c2sc3nsc(C)c3c2N)cc1	inconclusive: 0.631 µM [activator, partial curve, poor fit]
CC1C(=O)Nc2ccccc2N1C(=O)c1ccc(Cl)c(Cl)c1 (centres undefined)	inconclusive: 0.316 µM [inhibitor, full curve, poor fit]
COc1ccc(C(=S)NC2CCCCC2)cc1	inconclusive: 3.98 µM [activator, full curve]
Nc1ccc2c(c1)C(=O)c1ccccc1-2	inactive
COc1cc(NC(=O)c2cc(OC)c(OC)c(OC)c2)c2ncccc2c1	inconclusive: 11.2 µM [inhibitor, single point]
CCCn1c(N)c(C(=O)CSc2ncc(C(F)(F)F)cc2Cl)c(=O)[nH]c1=O	active: 3.16 µM
COc1ccc(-c2nc3scc(CCNS(=O)(=O)c4cccc(C(C)=O)c4)n3n2)cc1	inactive
CCOc1cc(CNn2cnnc2)cc(Cl)c1OCC(=O)NC(C)(C)C	inactive
CNc1nc2c(c(=O)n(C)c(=O)n2C)n1CCCc1ccccc1	inconclusive: 11.2 µM [inhibitor, partial curve]
O=C(N/N=C/c1ccc(Cl)c([N+](=O)[O-])c1)c1cc(-c2ccc3c4c(cccc24)CC3)n[nH]1	active: 6.31 µM
CCOC(=O)c1ccc(NC(=O)c2cc3c(n(-c4ccc(C)cc4)c2=O)CC(C)(C)CC3=O)cc1	inactive
CC1SCC(=O)N(CC(=O)Nc2ccc3c(c2)OCCO3)C1=O (centres undefined)	inactive
COc1ccc(C(=O)c2ccc(C)cc2)c(OC)c1OC	inconclusive: 12.6 µM [inhibitor, partial curve, poor fit]
C=C(C)C1CC=C(C)/C(=N\NC(=O)CCc2ccccc2)C1 (centres undefined)	inconclusive: 1.16 µM [inhibitor, partial curve, poor fit]

SMILES	Potency
O=C(Nc1ccccc1C(=O)N1CCOCC1)c1noc2c1CCCC2	inconclusive: 3.66 µM [inhibitor, single point]
Cc1ccc(CNC(=O)CN(CCc2ccccc2)S(C)(=O)=O)cc1	inconclusive: 6.31 µM [inhibitor, single point]
COc1ccc(NC(=O)c2cc(-c3cc(C)cc(C)c3O)n[nH]2)cc1Cl	inactive
COc1cc(/C=N/Nc2nc3ccccc3[nH]2)ccc1O	inconclusive: 31.6 µM [inhibitor, single point]
CCc1ccc(S(=O)(=O)NCC(O)COc2ccc(OC)cc2)cc1 (centres undefined)	inconclusive: 35.5 µM [inhibitor, single point]
CCCCC(=O)N/N=C/c1sccc1C	inconclusive: 18.4 µM [activator, partial curve, poor fit]
CC(C)N1CCC(N2CCN(Cc3cnc(-c4ccccc4)s3)CC2CCO)CC1 (centres undefined)	inactive
COc1ccc(Nc2nc(-c3cccnc3)nc3ccccc23)cn1	inconclusive: 7.08 µM [inhibitor, full curve, poor fit]
COc1ccc(Cl)cc1C(=O)Nc1ccncc1	inactive
CCOc1ccc(C(=O)/C=C/Nc2ccc(S(=O)(=O)Nc3onc(C)c3C)cc2)cc1	inactive
Oc1ccc(Nc2nc(-c3ccc(Cl)cc3)nc3ccccc23)cc1	inconclusive: 5.01 µM [inhibitor, single point]
Cc1nn(-c2ccccc2)c(Cl)c1/C=N/NC(=O)C1COc2ccccc2O1 (centres undefined)	inactive
CCOCCCn1c(=N)c(C(=O)NC2CCCC2)cc2c(=O)n3cccc(C)c3nc21	inconclusive: 35.5 µM [inhibitor, single point]
c1ccc(CCn2c3ccccc3c3nnc(SCc4ccc5nonc5c4)nc32)cc1	active: 5.8 µM
COc1ccc(NC(=O)CCCN2C(=O)CCC2=O)cc1Cl	inactive
COCCNc1nc(CSc2ccccc2)nc2sc(C)c(C)c12	inconclusive: 1.26 µM [activator, partial curve, poor fit]
COc1cccc(Oc2ccc(OC)cc2C(=O)O)c1	inconclusive: 35.5 µM [activator, single point]
CC(=O)OC1CC(OC2C(O)CC(OC3C(O)CC(OC4CCC5(C)C(CCC6C5CCC5(C)C(C7=CC(=O)OC7)CCC65O)C4)OC3C)OC2C)OC(C)C1OC1OC(CO)C(O)C(O)C1O (centres undefined)	active: 0.1 µM
CC1CCCC(NC(=O)CNCc2ccccc2F)C1C (centres undefined)	inconclusive: 1.41 µM [inhibitor, single point]
Cc1ccc(C(C)NC(=O)CSc2ccc(S(=O)(=O)N3CCOCC3)cn2)cc1C (centres undefined)	inactive
NS(=O)(=O)c1ccc(CNC(=S)Nc2ccc(Cl)c(Cl)c2)cc1	inactive
Cn1nnnc1SCCCNCc1ccccc1OCc1ccccc1F	inactive
Oc1ccc2c3c1O[C@H]1c4[nH]c5ccccc5c4C[C@@]4(O)C(C2)N(CC2CC2)CCC314 (some centres undefined)	active: 18.3 µM
CNc1nc2c(C)cccn2c(=O)c1C=NCc1ccccc1	inactive
COc1ccc(OCC(O)CNC2CCCC2)cc1 (centres undefined)	inactive

SMILES	Potency
CC(C)(C)OC(=O)NCCc1nnc(SCC(=O)c2ccc(Cl)cc2)o1	inconclusive: 0.013 µM [inhibitor, full curve, poor fit]
CN1CCCC(OC(=O)c2cccc(Cl)c2)C1 (centres undefined)	inconclusive: 15.8 µM [activator, partial curve, poor fit]
CCN(CC)CCNC(=O)Cn1ncc2c3ccccc3n(Cc3ccccc3C)c2c1=O	inconclusive: 35.5 µM [inhibitor, single point]
Cc1ccc(N(C(=O)c2cccc(C)c2)S(=O)(=O)c2ccc(Cl)cc2)cc1	inconclusive: 7.94 µM [inhibitor, partial curve, poor fit]
Cc1ccc(C(C(=O)NCC2CCCO2)N(C(=O)c2snc(C(N)=O)c2N)c2ccc(C)c(C)c2)o1 (centres undefined)	inconclusive: 12.6 µM [inhibitor, partial curve]
COc1ccc(NC(=O)/C(Cl)=C(/Cl)S(=O)Cc2ccccc2)cn1 (centres undefined)	active: 1.58 µM
COc1ccc(C(=O)c2cn(Cc3cccc(C)c3)c3cc4c(cc3c2=O)OCCO4)cc1OC	inactive
CC(=O)/C(C#N)=C1\NC(=O)C(Cc2ccccc2C)S1 (centres undefined)	inconclusive: 0.631 µM [inhibitor, full curve, poor fit]
C/C(=N\NC(=O)c1c(C)nc2ccccn12)c1ccc(N2CCOCC2)cc1	inactive
COc1cc2[nH]c3c(=O)n(N)c(=O)[nH]c3c2cc1OC	inactive
c1ccc(-c2ccccc2OCCCN2CCCCC2)cc1	active: 16.4 µM
CC(C)n1nc(C(=O)OCC(=O)c2c[nH]c3ccccc23)c2ccccc2c1=O	inactive
COc1ccccc1N=c1scc(-c2ccc3c(c2)NC(=O)CO3)n1CC1CCCO1 (centres undefined)	inconclusive: 25.1 µM [inhibitor, single point]
Nc1nc(N)c(Cc2ccc(Cl)cc2Cl)c(N)n1	inactive
CC(C)(C)c1ccc(-n2ncc3c2CCCC3NC(=O)CCn2cncn2)cc1 (centres undefined)	inactive
Cc1ccc(CCNC(=O)CN2CCN(Cc3ccc(Cl)cc3)C2=O)cc1	inactive
Cc1ccc(S(=O)(=O)Nc2ccc3c(c2)c(C(=O)OC(C)C)c(C)n3S(=O)(=O)c2ccc(C)cc2)cc1	inconclusive: 8.91 µM [inhibitor, partial curve]
CC(=O)c1ccc(NC(=O)c2ccc(CN3C(=O)CCn4nc(C)cc43)cc2)cc1	inactive
CC(C)c1ccc(NC(=O)CCc2ccccc2)cc1	inconclusive: 11.2 µM [inhibitor, single point]
Cc1ccc(S(=O)(=O)N2CCC(C(=O)OCC(=O)N(C)C3CCS(=O)(=O)C3)CC2)cc1C (centres undefined)	inactive
COc1ccc(Cc2nc3ccc(C(=O)NCc4cc(Br)ccc4OC)cc3o2)cc1	inactive
O=C(Cc1ccccc1)Nc1cc(-c2nc3cc(Cl)ccc3o2)ccc1Cl	inactive
N#Cc1ccccc1S(=O)(=O)N1CCC(Oc2ccc(-n3cnnn3)cc2)CC1	inconclusive: 6.31 µM [activator, single point]
CCN(CC)C(=O)Cn1c(=O)n(-c2ccccc2)c(=O)n1CC(=O)N(CC)CC	inconclusive: 20.6 µM [activator, partial curve, poor fit]

A draw from above in order of SMILES length, rising.
SMILES	Potency
COc1ccc(OCC(O)CNC2CCCC2)cc1 (centres undefined)	inactive
CNc1nc2c(C)cccn2c(=O)c1C=NCc1ccccc1	inactive
C/C(=N\NC(=O)C1CCCC1)c1ccc(C(C)C)cc1	inactive
Cc1ccc(CNC(=O)CN(CCc2ccccc2)S(C)(=O)=O)cc1	inconclusive: 6.31 µM [inhibitor, single point]
Cc1ccc(C(=O)Nc2ccccc2C(=O)N2CC3(C)CC2CC(C)(C)C3)cc1 (centres undefined)	inconclusive: 32.6 µM [inhibitor, partial curve, poor fit]
Oc1ccc2c3c1O[C@H]1c4[nH]c5ccccc5c4C[C@@]4(O)C(C2)N(CC2CC2)CCC314 (some centres undefined)	active: 18.3 µM
Cc1ccc(S(=O)(=O)Nc2ccc3c(c2)c(C(=O)OC(C)C)c(C)n3S(=O)(=O)c2ccc(C)cc2)cc1	inconclusive: 8.91 µM [inhibitor, partial curve]
